{"source": "patent US4752612A", "about": "“Method and percutaneously administering physiologically active agents using an alcohol adjuvant and a solvent” (Nitto Electrical Industrial Co., Ltd., priority 1986, dated 1988)", "origin": "cited, not measured here", "details": "man, Kaplan et al., J. Pharm. Sci. 1973; cited from earlier work", "data": [{"smiles": "CN1C(=O)CN=C(c2ccccc2)c2cc(Cl)ccc21", "note": "[Diazepam, 7-Chloro-1,3-dihydro-1-methyl-5-phenyl-2H-1,4-benzodiazepine-2-one]", "values": [{"measurement": "blood levels after therapeutic oral doses", "value": "approximately 100 ng/ml plasma"}]}]}
